# Data as given in the supplement of paper PMC8728848.
# Some of the results follow.
# How the values were obtained:
# Test in all cases: glycan array binding signal (z-score within array); higher = stronger binding
# Conditions in all cases: glycan notation: IUPAC condensed, linker removed
# [1] = biological target: Gal(b1-4)GlcNAc(b1-3)Gal(b1-3)GlcNAc
# Procedure, shortened: (§1)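 Columns mapping to the same glycan were averaged after glycan names were converted to IUPAC-condensed notation. The data come from 3228 arrays in the Consortium for Functional Glycomics database, limited to those with an available protein sequence. Binding is reported as a within-array Z-score averaged across arrays of one protein sequence and across linkers.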
# [2] = biological target: Gal(b1-4)GlcNAc(b1-3)Gal(b1-4)Glc
# Procedure, shortened: as §1
# [3] = biological target: Gal(b1-4)GlcNAc(b1-3)Gal(b1-4)GlcNAc
# Procedure, shortened: as §1
# [4] = biological target: Gal(b1-4)GlcNAc(b1-3)Gal(b1-4)GlcNAc(b1-2)Man(a1-3)[Gal(b1-4)GlcNAc(b1-3)Gal(b1-4)GlcNAc(b1-2)Man(a1-6)]Man(b1-4)GlcNAc(b1-4)GlcNAc
# Procedure, shortened: as §1
# [5] = biological target: Gal(b1-4)GlcNAc(b1-3)Gal(b1-4)GlcNAc(b1-2)Man(a1-3)[Gal(b1-4)GlcNAc(b1-3)Gal(b1-4)GlcNAc(b1-2)Man(a1-6)]Man(b1-4)GlcNAc(b1-4)[Fuc(a1-6)]GlcNAc
# Procedure, shortened: as §1
# [6] = biological target: Gal(b1-4)GlcNAc(b1-3)Gal(b1-4)GlcNAc(b1-2)[Gal(b1-4)GlcNAc(b1-3)Gal(b1-4)GlcNAc(b1-6)]Man(a1-6)[Gal(b1-4)GlcNAc(b1-3)Gal(b1-4)GlcNAc(b1-2)Man(a1-3)]Man(b1-4)GlcNAc(b1-4)GlcNAc
# Procedure, shortened: as §1
# [7] = biological target: Gal(b1-4)GlcNAc(b1-3)Gal(b1-4)GlcNAc(b1-2)[Gal(b1-4)GlcNAc(b1-3)Gal(b1-4)GlcNAc(b1-6)]Man(a1-6)[Gal(b1-4)GlcNAc(b1-3)Gal(b1-4)GlcNAc(b1-2)Man(a1-3)]Man(b1-4)GlcNAc(b1-4)[Fuc(a1-6)]GlcNAc
# Procedure, shortened: as §1
# [8] = biological target: Gal(b1-4)GlcNAc(b1-3)Gal(b1-4)GlcNAc(b1-3)Gal(b1-4)GlcNAc
# Procedure, shortened: as §1
# [9] = biological target: Gal(b1-4)GlcNAc(b1-3)Gal(b1-4)GlcNAc(b1-3)Gal(b1-4)GlcNAc(b1-2)Man(a1-3)[Gal(b1-4)GlcNAc(b1-3)Gal(b1-4)GlcNAc(b1-3)Gal(b1-4)GlcNAc(b1-2)Man(a1-6)]Man(b1-4)GlcNAc(b1-4)GlcNAc
# Procedure, shortened: as §1
# [10] = biological target: Gal(b1-4)GlcNAc(b1-3)Gal(b1-4)GlcNAc(b1-3)Gal(b1-4)GlcNAc(b1-2)Man(a1-3)[Gal(b1-4)GlcNAc(b1-3)Gal(b1-4)GlcNAc(b1-3)Gal(b1-4)GlcNAc(b1-2)Man(a1-6)]Man(b1-4)GlcNAc(b1-4)[Fuc(a1-6)]GlcNAc
# Procedure, shortened: as §1
# [11] = biological target: Gal(b1-4)GlcNAc(b1-3)Gal(b1-4)GlcNAc(b1-3)Gal(b1-4)GlcNAc(b1-2)[Gal(b1-4)GlcNAc(b1-3)Gal(b1-4)GlcNAc(b1-3)Gal(b1-4)GlcNAc(b1-6)]Man(a1-6)[Gal(b1-4)GlcNAc(b1-3)Gal(b1-4)GlcNAc(b1-3)Gal(b1-4)GlcNAc(b1-2)Man(a1-3)]Man(b1-4)GlcNAc(b1-4)[Fuc(a1-6)]GlcNAc
# Procedure, shortened: as §1
# [12] = biological target: Gal(b1-4)GlcNAc(b1-3)Gal(b1-4)GlcNAc(b1-3)Gal(b1-4)GlcNAc(b1-3)Gal(b1-4)GlcNAc(b1-2)Man(a1-3)[Gal(b1-4)GlcNAc(b1-3)Gal(b1-4)GlcNAc(b1-3)Gal(b1-4)GlcNAc(b1-3)Gal(b1-4)GlcNAc(b1-2)Man(a1-6)]Man(b1-4)GlcNAc(b1-4)GlcNAc
# Procedure, shortened: as §1
# [13] = biological target: Gal(b1-4)GlcNAc(b1-3)Gal(b1-4)GlcNAc(b1-3)Gal(b1-4)GlcNAc(b1-3)Gal(b1-4)GlcNAc(b1-2)Man(a1-3)[Gal(b1-4)GlcNAc(b1-3)Gal(b1-4)GlcNAc(b1-3)Gal(b1-4)GlcNAc(b1-3)Gal(b1-4)GlcNAc(b1-2)Man(a1-6)]Man(b1-4)GlcNAc(b1-4)[Fuc(a1-6)]GlcNAc
# Procedure, shortened: as §1
# [14] = biological target: Gal(b1-4)GlcNAc(b1-3)Gal(b1-4)GlcNAc(b1-3)Gal(b1-4)GlcNAc(b1-3)Gal(b1-4)GlcNAc(b1-2)[Gal(b1-4)GlcNAc(b1-3)Gal(b1-4)GlcNAc(b1-3)Gal(b1-4)GlcNAc(b1-3)Gal(b1-4)GlcNAc(b1-6)]Man(a1-6)[Gal(b1-4)GlcNAc(b1-3)Gal(b1-4)GlcNAc(b1-3)Gal(b1-4)GlcNAc(b1-3)Gal(b1-4)GlcNAc(b1-2)Man(a1-3)]Man(b1-4)GlcNAc(b1-4)[Fuc(a1-6)]GlcNAc
# Procedure, shortened: as §1
# [15] = biological target: Gal(b1-4)GlcNAc(b1-3)Gal(b1-4)GlcNAc(b1-3)Gal(b1-4)GlcNAc(b1-3)Gal(b1-4)GlcNAc(b1-3)Gal(b1-4)GlcNAc(b1-2)Man(a1-3)[Gal(b1-4)GlcNAc(b1-3)Gal(b1-4)GlcNAc(b1-3)Gal(b1-4)GlcNAc(b1-3)Gal(b1-4)GlcNAc(b1-3)Gal(b1-4)GlcNAc(b1-2)Man(a1-6)]Man(b1-4)GlcNAc(b1-4)GlcNAc
# Procedure, shortened: as §1
# [16] = biological target: Gal(b1-4)GlcNAc(b1-3)Gal(b1-4)GlcNAc(b1-3)Gal(b1-4)GlcNAc(b1-3)Gal(b1-4)GlcNAc(b1-3)Gal(b1-4)GlcNAc(b1-2)Man(a1-3)[Gal(b1-4)GlcNAc(b1-3)Gal(b1-4)GlcNAc(b1-3)Gal(b1-4)GlcNAc(b1-3)Gal(b1-4)GlcNAc(b1-3)Gal(b1-4)GlcNAc(b1-2)Man(a1-6)]Man(b1-4)GlcNAc(b1-4)[Fuc(a1-6)]GlcNAc
# Procedure, shortened: as §1
# [17] = biological target: Gal(b1-4)GlcNAc(b1-3)Gal(b1-4)GlcNAc(b1-3)Gal(b1-4)GlcNAc(b1-3)Gal(b1-4)GlcNAc(b1-3)Gal(b1-4)GlcNAc(b1-2)[Gal(b1-4)GlcNAc(b1-3)Gal(b1-4)GlcNAc(b1-3)Gal(b1-4)GlcNAc(b1-3)Gal(b1-4)GlcNAc(b1-3)Gal(b1-4)GlcNAc(b1-6)]Man(a1-6)[Gal(b1-4)GlcNAc(b1-3)Gal(b1-4)GlcNAc(b1-3)Gal(b1-4)GlcNAc(b1-3)Gal(b1-4)GlcNAc(b1-3)Gal(b1-4)GlcNAc(b1-2)Man(a1-3)]Man(b1-4)GlcNAc(b1-4)[Fuc(a1-6)]GlcNAc
# Procedure, shortened: as §1
# [18] = biological target: Gal(b1-4)GlcNAc(b1-3)Gal(b1-4)GlcNAc(b1-3)Gal(b1-4)GlcNAc(b1-3)Gal(b1-4)GlcNAc(b1-3)Gal(b1-4)GlcNAc(b1-3)Gal(b1-4)GlcNAc(b1-2)Man(a1-3)[Gal(b1-4)GlcNAc(b1-3)Gal(b1-4)GlcNAc(b1-3)Gal(b1-4)GlcNAc(b1-3)Gal(b1-4)GlcNAc(b1-3)Gal(b1-4)GlcNAc(b1-3)Gal(b1-4)GlcNAc(b1-2)Man(a1-6)]Man(b1-4)GlcNAc(b1-4)GlcNAc
# Procedure, shortened: as §1
# [19] = biological target: Gal(b1-4)GlcNAc(b1-3)Gal(b1-4)GlcNAc(b1-3)GalNAc
# Procedure, shortened: as §1
binder,measurement,setting,value
"AT3G09350(27) (Arabidopsis thaliana), Q84J81 (protein) MAKDGPNWDGLLKWSLSHADGTRPTRQLSEEDRKWFMEAMQSQTVDVVKRMKEITLVMQTPEQVLVEHGVTPEDIQDLLDELQEHVESIDMANDLHSIGGLVPLLSFLKNSHANIRAKAADVVSTIVQNNPRSQELVMETNALESLLSNFTSDTDIHARTQALGAISSLIRHNKPGVTAFKLANGYAGLRDALASDSVRFQRKALNLLQYLLQEDDSDRSIATGLGFPRVMMHLASSDDAEIREAALRGLLELSREKNDGSSSIDKSDEKLRQLLEERIKGITLMSQEDLETVKEERQLVDLLWSICYNEPSSLREKGLVVLPGEDALPPDVASKLFEPPLRASAANRNATEKKDEPMKLLGP",glycan array binding signal (z-score),[1],-0.739
same,glycan array binding signal (z-score),[2],0.442
same,glycan array binding signal (z-score),[3],0.42
same,glycan array binding signal (z-score),[4],0.418
same,glycan array binding signal (z-score),[5],-0.388
same,glycan array binding signal (z-score),[6],0.522
same,glycan array binding signal (z-score),[7],-0.221
same,glycan array binding signal (z-score),[8],-0.41
same,glycan array binding signal (z-score),[9],-0.106
same,glycan array binding signal (z-score),[10],0.94
same,glycan array binding signal (z-score),[11],-0.634
same,glycan array binding signal (z-score),[12],0.499
same,glycan array binding signal (z-score),[13],0.211
same,glycan array binding signal (z-score),[14],0.578
same,glycan array binding signal (z-score),[15],-0.471
same,glycan array binding signal (z-score),[16],-0.116
same,glycan array binding signal (z-score),[17],-0.025
same,glycan array binding signal (z-score),[18],0.331
same,glycan array binding signal (z-score),[19],-0.711
